Data source: PubChem BioAssay AID1259308 (NCATS, 2017)
The whole screen tested about 59,000 reagents; this is an unselected part. About 1,510 of all reagents (2.6%) count as active. 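Calls use total luciferase alone and ignore viability, so some active siRNAs may act by altering cell number.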 A number with no mark means an inactive call. Reagents against one gene are numbered here.

Aim: 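Candidate targets for better recombinant protein yield in mammalian cells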 (primary screen)
Cells: human HEK293 embryonic kidney cells stably expressing firefly luciferase (HEK-CMV-Luc2-Hygro)
Knock-down reagent: single siRNA against human genes, 0.8 pmol siRNA per well
Timing: 72 h
Measurement: 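Reporter luminescence and viable-cell signal on separate replicate plates, given as percent of non-targeting control and median/MAD z-scores, plus per-cell luciferase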
Scale: total luciferase, z-score and total luciferase, % of control: higher = more reporter protein produced; luciferase per cell, z-score: higher = more reporter output per viable cell; viable cells, % of control: higher = more viable cells
Active means: 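Active when the median/MAD z-score for overall luciferase is greater than 3; a gene was taken forward for validation with new siRNAs if at least two of its three siRNAs passed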
Meaning of the calls: active = raised luciferase; inactive = no rise

Gene | siRNA no. | total luciferase, z-score | total luciferase, % of control | luciferase per cell, z-score | viable cells, % of control
PEAK3 (PEAK family member 3) | 1 | -0.126 | 79.4 | -0.423 | 99.2
PEAK3 (PEAK family member 3) | 2 | 1.28 | 107 | 0.752 | 98.4
PEAK3 (PEAK family member 3) | 3 | -1.33 | 55.5 | -0.31 | 67.3
GATC (glutamyl-tRNA amidotransferase subunit C) | 1 | 3.59 (active) | 153 | 2.55 | 87.7
GATC (glutamyl-tRNA amidotransferase subunit C) | 2 | -0.11 | 79.7 | -0.0239 | 89.6
GATC (glutamyl-tRNA amidotransferase subunit C) | 3 | 0.431 | 90.5 | -0.477 | 115
ATOX1 (antioxidant 1 copper chaperone) | 1 | -0.00724 | 81.7 | 0.197 | 86.7
ATOX1 (antioxidant 1 copper chaperone) | 2 | -0.618 | 69.6 | 0.0485 | 76.8
ATOX1 (antioxidant 1 copper chaperone) | 3 | 0.125 | 84.4 | -0.0793 | 96.3
C20orf173 (chromosome 20 open reading frame 173) | 1 | 1.49 | 112 | 0.683 | 104
C20orf173 (chromosome 20 open reading frame 173) | 2 | -1.35 | 55.1 | -1.75 | 97.6
C20orf173 (chromosome 20 open reading frame 173) | 3 | 1.33 | 108 | 1.14 | 89.7
MPI (mannose phosphate isomerase) | 1 | 0.3 | 87.9 | 0.0159 | 97.8
MPI (mannose phosphate isomerase) | 2 | 3.13 (active) | 144 | 2.73 | 78.6
MPI (mannose phosphate isomerase) | 3 | 1.17 | 105 | 2.82 | 56
KCNJ13 (potassium inwardly rectifying channel subfamily J member 13) | 1 | 0.951 | 101 | 0.89 | 89.1
KCNJ13 (potassium inwardly rectifying channel subfamily J member 13) | 2 | -0.481 | 72.3 | -0.8 | 99.8
KCNJ13 (potassium inwardly rectifying channel subfamily J member 13) | 3 | -0.201 | 77.9 | -0.287 | 93.9
GRM4 (glutamate metabotropic receptor 4) | 1 | 0.133 | 84.5 | 0.189 | 89.9
GRM4 (glutamate metabotropic receptor 4) | 2 | 0.342 | 88.7 | 0.185 | 94.4
GRM4 (glutamate metabotropic receptor 4) | 3 | -0.5 | 71.9 | -1.06 | 106
NRAS (NRAS proto-oncogene, GTPase) | 1 | -0.172 | 78.5 | -1.05 | 115
NRAS (NRAS proto-oncogene, GTPase) | 2 | 1.19 | 106 | 0.532 | 103
NRAS (NRAS proto-oncogene, GTPase) | 3 | 0.0365 | 82.6 | 0.216 | 87.2
INA (internexin neuronal intermediate filament protein alpha) | 1 | -0.74 | 67.2 | 0.495 | 65.9
INA (internexin neuronal intermediate filament protein alpha) | 2 | 1.63 | 114 | 0.853 | 102
INA (internexin neuronal intermediate filament protein alpha) | 3 | -2.56 | 30.9 | -4.18 | 104

No new results follow: 4 of the entries above.
Gene | siRNA no. | total luciferase, z-score | total luciferase, % of control | luciferase per cell, z-score | viable cells, % of control
MPI (mannose phosphate isomerase) | 1 | 0.3 | 87.9 | 0.0159 | 97.8
MPI (mannose phosphate isomerase) | 2 | 3.13 (active) | 144 | 2.73 | 78.6
MPI (mannose phosphate isomerase) | 3 | 1.17 | 105 | 2.82 | 56
KCNJ13 (potassium inwardly rectifying channel subfamily J member 13) | 1 | 0.951 | 101 | 0.89 | 89.1

The listing continues:
Gene | siRNA no. | total luciferase, z-score | total luciferase, % of control | luciferase per cell, z-score | viable cells, % of control
MPP7 (MAGUK p55 scaffold protein 7) | 1 | 1.32 | 108 | 1.01 | 92.5
MPP7 (MAGUK p55 scaffold protein 7) | 2 | -0.494 | 72.1 | -0.304 | 87.2
MPP7 (MAGUK p55 scaffold protein 7) | 3 | -0.264 | 76.6 | -0.516 | 98.1
ANKAR (ankyrin and armadillo repeat containing) | 1 | 0.386 | 89.6 | -0.149 | 104
ANKAR (ankyrin and armadillo repeat containing) | 2 | 1.02 | 102 | 0.578 | 98
ANKAR (ankyrin and armadillo repeat containing) | 3 | -1.2 | 58 | -1.9 | 107
ARHGEF37 (Rho guanine nucleotide exchange factor 37) | 1 | 2.23 | 126 | 1.95 | 84.5
ARHGEF37 (Rho guanine nucleotide exchange factor 37) | 2 | -1.47 | 52.7 | -0.339 | 64.4
ARHGEF37 (Rho guanine nucleotide exchange factor 37) | 3 | 0.903 | 99.8 | 0.499 | 97.8
RPS15AP9 (ribosomal protein S15a pseudogene 9) | 1 | 0.51 | 92 | 0.227 | 96.9
RPS15AP9 (ribosomal protein S15a pseudogene 9) | 2 | -0.784 | 66.3 | -0.297 | 80.1
RPS15AP9 (ribosomal protein S15a pseudogene 9) | 3 | -1.12 | 59.6 | -0.516 | 76.2
ICE2 (interactor of little elongation complex ELL subunit 2) | 1 | 1.15 | 105 | 0.779 | 95.3
ICE2 (interactor of little elongation complex ELL subunit 2) | 2 | 0.856 | 98.9 | 0.652 | 93.1
ICE2 (interactor of little elongation complex ELL subunit 2) | 3 | -0.454 | 72.9 | 0.949 | 63.4
STK3 (serine/threonine kinase 3) | 1 | -1.33 | 55.4 | -0.0271 | 62.3
STK3 (serine/threonine kinase 3) | 2 | -0.0214 | 81.5 | -0.77 | 111
STK3 (serine/threonine kinase 3) | 3 | 2.62 | 134 | 2.02 | 88.1
RAD23A (RAD23 nucleotide excision repair protein A) | 1 | -1.26 | 56.7 | -0.267 | 68
RAD23A (RAD23 nucleotide excision repair protein A) | 2 | -0.84 | 65.2 | -0.624 | 85.8
RAD23A (RAD23 nucleotide excision repair protein A) | 3 | 0.098 | 83.8 | 1 | 71.9
PRSS53 (serine protease 53) | 1 | -0.763 | 66.7 | -0.129 | 77.1
PRSS53 (serine protease 53) | 2 | 0.0873 | 83.6 | 0.0362 | 92.6
PRSS53 (serine protease 53) | 3 | 3.6 (active) | 153 | 2.53 | 88
TSEN34 (tRNA splicing endonuclease subunit 34) | 1 | -0.159 | 78.7 | -0.481 | 99.9
TSEN34 (tRNA splicing endonuclease subunit 34) | 2 | -1.03 | 61.4 | -1.07 | 90.9
TSEN34 (tRNA splicing endonuclease subunit 34) | 3 | 0.23 | 86.5 | -0.216 | 102
ARL15 (ARF like GTPase 15) | 1 | 1.46 | 111 | 1.95 | 74.1
ARL15 (ARF like GTPase 15) | 2 | -1.23 | 57.5 | -1.34 | 91.3
ARL15 (ARF like GTPase 15) | 3 | 0.73 | 96.4 | 0.798 | 87.3
